From article PMC12724330
Results are given in words; binding and its absence hold for the method and conditions named. Binding seen in cells or lysates may run through a third protein. Some results given as binding are weak or reduced against the parent protein; the word gives no strength.

Amino acid sequences for entries named in this document (tags omitted).
UniProt Q13111: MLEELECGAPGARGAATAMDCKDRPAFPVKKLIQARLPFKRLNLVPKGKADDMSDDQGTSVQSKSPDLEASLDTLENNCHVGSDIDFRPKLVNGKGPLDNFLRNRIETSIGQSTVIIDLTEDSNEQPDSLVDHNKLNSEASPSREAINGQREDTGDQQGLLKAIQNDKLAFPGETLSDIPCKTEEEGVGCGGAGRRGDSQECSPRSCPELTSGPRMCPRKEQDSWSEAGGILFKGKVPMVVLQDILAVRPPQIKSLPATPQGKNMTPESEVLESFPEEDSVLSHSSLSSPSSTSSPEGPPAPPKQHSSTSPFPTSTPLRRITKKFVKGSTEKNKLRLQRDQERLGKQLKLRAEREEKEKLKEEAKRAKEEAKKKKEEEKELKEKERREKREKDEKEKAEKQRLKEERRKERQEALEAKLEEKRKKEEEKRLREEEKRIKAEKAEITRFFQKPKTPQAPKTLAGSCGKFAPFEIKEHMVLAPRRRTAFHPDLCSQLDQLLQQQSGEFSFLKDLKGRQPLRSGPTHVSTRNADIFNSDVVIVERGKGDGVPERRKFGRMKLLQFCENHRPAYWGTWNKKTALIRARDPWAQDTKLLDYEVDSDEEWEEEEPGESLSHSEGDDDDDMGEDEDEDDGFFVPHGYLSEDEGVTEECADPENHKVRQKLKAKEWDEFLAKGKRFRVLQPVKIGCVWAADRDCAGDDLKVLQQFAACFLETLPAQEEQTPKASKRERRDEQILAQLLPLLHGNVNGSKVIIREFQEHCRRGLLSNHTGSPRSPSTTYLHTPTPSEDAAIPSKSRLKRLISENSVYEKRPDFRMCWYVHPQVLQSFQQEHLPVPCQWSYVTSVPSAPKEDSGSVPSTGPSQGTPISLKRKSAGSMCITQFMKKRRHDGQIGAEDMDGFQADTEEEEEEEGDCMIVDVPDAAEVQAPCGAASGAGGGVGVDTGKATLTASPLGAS
UniProt P46934: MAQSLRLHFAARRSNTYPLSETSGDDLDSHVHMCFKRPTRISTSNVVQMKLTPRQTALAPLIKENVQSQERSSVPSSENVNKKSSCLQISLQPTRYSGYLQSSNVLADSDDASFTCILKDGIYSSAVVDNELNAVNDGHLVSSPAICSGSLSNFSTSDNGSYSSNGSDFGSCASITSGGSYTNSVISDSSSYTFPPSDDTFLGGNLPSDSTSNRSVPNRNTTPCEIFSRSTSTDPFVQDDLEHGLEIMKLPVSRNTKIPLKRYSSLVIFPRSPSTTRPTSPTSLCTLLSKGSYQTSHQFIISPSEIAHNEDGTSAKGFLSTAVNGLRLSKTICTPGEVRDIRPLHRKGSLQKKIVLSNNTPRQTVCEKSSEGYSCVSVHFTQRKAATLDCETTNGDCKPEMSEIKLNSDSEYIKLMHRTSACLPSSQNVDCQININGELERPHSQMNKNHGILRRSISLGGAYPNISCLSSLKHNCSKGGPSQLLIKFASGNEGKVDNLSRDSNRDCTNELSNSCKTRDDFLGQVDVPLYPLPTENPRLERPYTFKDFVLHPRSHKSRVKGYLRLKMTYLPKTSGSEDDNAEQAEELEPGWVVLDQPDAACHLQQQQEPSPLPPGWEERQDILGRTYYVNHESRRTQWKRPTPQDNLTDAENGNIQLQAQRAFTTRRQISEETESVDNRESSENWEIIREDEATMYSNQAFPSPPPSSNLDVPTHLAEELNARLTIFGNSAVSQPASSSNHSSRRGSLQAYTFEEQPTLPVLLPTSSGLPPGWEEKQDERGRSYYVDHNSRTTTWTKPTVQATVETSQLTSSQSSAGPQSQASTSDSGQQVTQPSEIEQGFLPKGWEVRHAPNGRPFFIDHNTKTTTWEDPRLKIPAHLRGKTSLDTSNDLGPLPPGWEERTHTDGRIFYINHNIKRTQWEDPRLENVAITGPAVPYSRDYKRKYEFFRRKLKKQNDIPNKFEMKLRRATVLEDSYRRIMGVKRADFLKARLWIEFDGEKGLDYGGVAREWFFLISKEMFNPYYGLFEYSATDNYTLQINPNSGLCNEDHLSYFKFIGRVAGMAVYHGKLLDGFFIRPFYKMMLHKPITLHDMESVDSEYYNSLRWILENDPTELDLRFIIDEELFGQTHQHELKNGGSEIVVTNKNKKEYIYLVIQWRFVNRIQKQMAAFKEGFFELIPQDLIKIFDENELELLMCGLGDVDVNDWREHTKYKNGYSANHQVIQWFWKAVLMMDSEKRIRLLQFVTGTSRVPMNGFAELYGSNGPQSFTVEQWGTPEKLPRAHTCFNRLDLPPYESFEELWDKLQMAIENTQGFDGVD

T1: O-GlcNAc transferase (OGT) (human (endogenous in Jurkat)) (UniProt O15294)
T1 sequence: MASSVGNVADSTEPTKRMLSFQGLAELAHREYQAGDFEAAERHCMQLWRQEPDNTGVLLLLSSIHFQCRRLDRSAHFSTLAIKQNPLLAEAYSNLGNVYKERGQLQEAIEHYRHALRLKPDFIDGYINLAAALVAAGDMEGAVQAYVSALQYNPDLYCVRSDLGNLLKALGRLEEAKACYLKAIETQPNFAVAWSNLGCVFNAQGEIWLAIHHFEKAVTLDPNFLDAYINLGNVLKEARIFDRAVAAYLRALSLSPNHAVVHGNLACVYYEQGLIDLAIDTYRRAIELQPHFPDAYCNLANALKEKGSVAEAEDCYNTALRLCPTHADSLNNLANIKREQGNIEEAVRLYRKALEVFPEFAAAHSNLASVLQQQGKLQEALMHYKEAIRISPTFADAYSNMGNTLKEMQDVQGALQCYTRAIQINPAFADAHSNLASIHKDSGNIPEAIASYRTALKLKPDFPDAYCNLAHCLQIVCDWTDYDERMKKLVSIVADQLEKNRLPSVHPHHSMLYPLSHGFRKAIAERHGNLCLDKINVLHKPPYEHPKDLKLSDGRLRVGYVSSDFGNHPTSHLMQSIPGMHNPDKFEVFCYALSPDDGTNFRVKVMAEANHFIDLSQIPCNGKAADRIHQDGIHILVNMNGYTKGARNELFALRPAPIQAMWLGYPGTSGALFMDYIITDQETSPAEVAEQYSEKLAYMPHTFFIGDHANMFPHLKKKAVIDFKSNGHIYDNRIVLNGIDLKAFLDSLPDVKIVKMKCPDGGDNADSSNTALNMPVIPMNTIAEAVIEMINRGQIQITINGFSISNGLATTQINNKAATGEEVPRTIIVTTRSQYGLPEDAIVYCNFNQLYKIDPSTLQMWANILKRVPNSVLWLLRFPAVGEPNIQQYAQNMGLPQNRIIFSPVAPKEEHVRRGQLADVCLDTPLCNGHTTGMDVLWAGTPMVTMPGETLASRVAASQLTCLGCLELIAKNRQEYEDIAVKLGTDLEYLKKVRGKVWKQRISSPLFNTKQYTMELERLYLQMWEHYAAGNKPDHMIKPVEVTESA


Legend:
CHAF1A-HA = CHAF1A-HA (UniProt Q13111); experiment: co-IP; HEK293T cells co-transfected with CHAF1A-HA and GFP-Flag (control), NEDD4-Flag or MIB1-Flag, treated with MG132; lysed at 48 h; western blot with HA, FLAG and GAPDH antibodies
[1] = biological target: T1, O-GlcNAc transferase (OGT) (human (endogenous in Jurkat)); experiment: co-IP; Jurkat cell lysates immunoprecipitated with anti-CHAF1A antibody or, reciprocally, anti-OGT antibody, IgG as control; western blot; all proteins endogenous
[2] = biological target: Chromatin assembly factor 1 subunit A (CHAF1A) (human (endogenous in Jurkat)) (UniProt Q13111); experiment: as above

Molecule | binding [2] | further results
NEDD4-Flag (from UniProt P46934 1-1319) (enzyme) |  | binding (CHAF1A-HA): no binding
Chromatin assembly factor 1 subunit A (CHAF1A) (from UniProt Q13111 1-956) |  | binding [1]: binds
O-GlcNAc transferase (OGT) (enzyme, UniProt O15294 1-1046) MASSVGNVADSTEPTKRMLSFQGLAELAHREYQAGDFEAAERHCMQLWRQEPDNTGVLLLLSSIHFQCRRLDRSAHFSTLAIKQNPLLAEAYSNLGNVYKERGQLQEAIEHYRHALRLKPDFIDGYINLAAALVAAGDMEGAVQAYVSALQYNPDLYCVRSDLGNLLKALGRLEEAKACYLKAIETQPNFAVAWSNLGCVFNAQGEIWLAIHHFEKAVTLDPNFLDAYINLGNVLKEARIFDRAVAAYLRALSLSPNHAVVHGNLACVYYEQGLIDLAIDTYRRAIELQPHFPDAYCNLANALKEKGSVAEAEDCYNTALRLCPTHADSLNNLANIKREQGNIEEAVRLYRKALEVFPEFAAAHSNLASVLQQQGKLQEALMHYKEAIRISPTFADAYSNMGNTLKEMQDVQGALQCYTRAIQINPAFADAHSNLASIHKDSGNIPEAIASYRTALKLKPDFPDAYCNLAHCLQIVCDWTDYDERMKKLVSIVADQLEKNRLPSVHPHHSMLYPLSHGFRKAIAERHGNLCLDKINVLHKPPYEHPKDLKLSDGRLRVGYVSSDFGNHPTSHLMQSIPGMHNPDKFEVFCYALSPDDGTNFRVKVMAEANHFIDLSQIPCNGKAADRIHQDGIHILVNMNGYTKGARNELFALRPAPIQAMWLGYPGTSGALFMDYIITDQETSPAEVAEQYSEKLAYMPHTFFIGDHANMFPHLKKKAVIDFKSNGHIYDNRIVLNGIDLKAFLDSLPDVKIVKMKCPDGGDNADSSNTALNMPVIPMNTIAEAVIEMINRGQIQITINGFSISNGLATTQINNKAATGEEVPRTIIVTTRSQYGLPEDAIVYCNFNQLYKIDPSTLQMWANILKRVPNSVLWLLRFPAVGEPNIQQYAQNMGLPQNRIIFSPVAPKEEHVRRGQLADVCLDTPLCNGHTTGMDVLWAGTPMVTMPGETLASRVAASQLTCLGCLELIAKNRQEYEDIAVKLGTDLEYLKKVRGKVWKQRISSPLFNTKQYTMELERLYLQMWEHYAAGNKPDHMIKPVEVTESA | binds | 
O-GlcNAcase (OGA) (enzyme, UniProt O60502 1-916) MVQKESQATLEERESELSSNPAASAGASLEPPAAPAPGEDNPAGAGGAAVAGAAGGARRFLCGVVEGFYGRPWVMEQRKELFRRLQKWELNTYLYAPKDDYKHRMFWREMYSVEEAEQLMTLISAAREYEIEFIYAISPGLDITFSNPKEVSTLKRKLDQVSQFGCRSFALLFDDIDHNMCAADKEVFSSFAHAQVSITNEIYQYLGEPETFLFCPTEYCGTFCYPNVSQSPYLRTVGEKLLPGIEVLWTGPKVVSKEIPVESIEEVSKIIKRAPVIWDNIHANDYDQKRLFLGPYKGRSTELIPRLKGVLTNPNCEFEANYVAIHTLATWYKSNMNGVRKDVVMTDSEDSTVSIQIKLENEGSDEDIETDVLYSPQMALKLALTEWLQEFGVPHQYSSRQVAHSGAKASVVDGTPLVAAPSLNATTVVTTVYQEPIMSQGAALSGEPTTLTKEEEKKQPDEEPMDMVVEKQEETDHKNDNQILSEIVEAKMAEELKPMDTDKESIAESKSPEMSMQEDCISDIAPMQTDEQTNKEQFVPGPNEKPLYTAEPVTLEDLQLLADLFYLPYEHGPKGAQMLREFQWLRANSSVVSVNCKGKDSEKIEEWRSRAAKFEEMCGLVMGMFTRLSNCANRTILYDMYSYVWDIKSIMSMVKSFVQWLGCRSHSSAQFLIGDQEPWAFRGGLAGEFQRLLPIDGANDLFFQPPPLTPTSKVYTIRPYFPKDEASVYKICREMYDDGVGLPFQSQPDLIGDKLVGGLLSLSLDYCFVLEDEDGICGYALGTVDVTPFIKKCKISWIPFMQEKYTKPNGDKELSEAEKIMLSFHEEQEVLPETFLANFPSLIKMDIHKKVTDPSVAKSMMACLLSSLKANGSRGAFCEVRPDDKRILEFYSKLGCFEIAKMEGFPKDVVILGRSL | binds | 
